This is one part of the list.
compound: NC(=O)Nc1cc(-c2cccc(F)c2)sc1C(=O)N[C@H]1CCCNC1; test: log2 fold change, soluble protein after heating vs DMSO (PISA); higher = thermal stabilisation; K562 lysate, 10 uM; active = over 0.2 and 3.5 SD of the protein, either way, in both replicates (recomputed)
Method in brief: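 A 30 min treatment with 10 μM compound was applied to crude K562 extract at 1 mg/mL protein in PBS pH 7.4 with 1 mM MgCl2. Heating for 3 min spanned 48°C-58°C, after which aliquots were pooled, adjusted to 0.5% NP-40 at 4°C and spun at 21,000xg for 90 min. TMTpro 16plex LC-MS/MS of the supernatant, with channel sums equalised, gave values recorded as log-two fold change in thermal stability against solvent controls, from duplicates.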

By UniProt entry, the sequences of proteins in these tests, tags left out. Where a name states a change or a piece, a line headed by the entry shows the natural chain unless it says otherwise.
UniProt Q9Y6I3: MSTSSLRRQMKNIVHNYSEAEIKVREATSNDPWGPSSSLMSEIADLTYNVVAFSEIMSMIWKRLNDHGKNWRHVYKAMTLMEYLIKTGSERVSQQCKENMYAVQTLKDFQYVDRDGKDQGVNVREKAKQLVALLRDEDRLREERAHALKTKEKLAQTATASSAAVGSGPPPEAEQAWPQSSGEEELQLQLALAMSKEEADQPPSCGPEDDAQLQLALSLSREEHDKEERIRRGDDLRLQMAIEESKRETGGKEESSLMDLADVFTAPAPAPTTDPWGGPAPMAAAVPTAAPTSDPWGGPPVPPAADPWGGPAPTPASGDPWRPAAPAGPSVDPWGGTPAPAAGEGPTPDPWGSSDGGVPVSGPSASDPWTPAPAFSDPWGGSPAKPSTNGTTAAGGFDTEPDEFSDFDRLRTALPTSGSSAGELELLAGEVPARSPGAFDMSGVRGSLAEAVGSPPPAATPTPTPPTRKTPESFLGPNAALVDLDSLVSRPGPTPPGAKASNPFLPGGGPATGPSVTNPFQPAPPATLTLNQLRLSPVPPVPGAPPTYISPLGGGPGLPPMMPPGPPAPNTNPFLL
UniProt Q9UBQ5, whole entry, looked up: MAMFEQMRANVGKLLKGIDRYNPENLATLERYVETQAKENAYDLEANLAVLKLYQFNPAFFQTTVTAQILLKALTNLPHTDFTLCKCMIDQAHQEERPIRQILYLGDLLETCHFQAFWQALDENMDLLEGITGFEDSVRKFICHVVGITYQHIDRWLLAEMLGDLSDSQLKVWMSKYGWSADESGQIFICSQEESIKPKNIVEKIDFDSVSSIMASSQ
UniProt Q5UCC4: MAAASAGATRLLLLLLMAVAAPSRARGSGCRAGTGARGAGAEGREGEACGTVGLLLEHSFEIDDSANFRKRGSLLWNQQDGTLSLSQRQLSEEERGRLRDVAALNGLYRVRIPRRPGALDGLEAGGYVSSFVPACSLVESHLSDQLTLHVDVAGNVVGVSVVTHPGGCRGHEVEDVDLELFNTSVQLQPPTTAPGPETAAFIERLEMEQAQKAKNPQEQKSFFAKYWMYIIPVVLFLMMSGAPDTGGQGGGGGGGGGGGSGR
UniProt Q9UI10, whole entry, looked up: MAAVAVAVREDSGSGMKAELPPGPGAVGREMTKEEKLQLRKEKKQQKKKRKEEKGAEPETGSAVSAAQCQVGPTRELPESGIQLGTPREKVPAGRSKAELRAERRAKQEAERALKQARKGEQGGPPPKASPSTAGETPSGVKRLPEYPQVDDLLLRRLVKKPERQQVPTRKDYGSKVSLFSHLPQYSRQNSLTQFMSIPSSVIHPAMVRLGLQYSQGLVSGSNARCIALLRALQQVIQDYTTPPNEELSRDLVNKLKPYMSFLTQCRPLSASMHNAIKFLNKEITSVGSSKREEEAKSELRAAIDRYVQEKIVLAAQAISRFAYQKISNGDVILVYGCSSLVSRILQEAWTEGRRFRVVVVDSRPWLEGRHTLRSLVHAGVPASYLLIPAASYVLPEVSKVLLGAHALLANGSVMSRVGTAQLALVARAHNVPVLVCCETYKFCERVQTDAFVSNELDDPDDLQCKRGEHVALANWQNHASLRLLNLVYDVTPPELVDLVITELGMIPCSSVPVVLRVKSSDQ
UniProt P07099: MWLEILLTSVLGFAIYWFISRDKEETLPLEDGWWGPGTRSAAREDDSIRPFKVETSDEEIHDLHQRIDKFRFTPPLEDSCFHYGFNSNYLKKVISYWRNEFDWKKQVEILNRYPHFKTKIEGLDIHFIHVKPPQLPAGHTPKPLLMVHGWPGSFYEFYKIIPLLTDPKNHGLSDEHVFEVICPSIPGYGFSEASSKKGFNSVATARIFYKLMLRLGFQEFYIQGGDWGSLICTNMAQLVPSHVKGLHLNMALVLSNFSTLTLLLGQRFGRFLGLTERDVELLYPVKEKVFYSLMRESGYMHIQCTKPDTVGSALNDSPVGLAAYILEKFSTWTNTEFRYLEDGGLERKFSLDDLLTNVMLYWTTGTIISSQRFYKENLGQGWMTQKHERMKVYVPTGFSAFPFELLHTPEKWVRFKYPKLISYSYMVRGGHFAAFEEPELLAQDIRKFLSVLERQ
UniProt O95163: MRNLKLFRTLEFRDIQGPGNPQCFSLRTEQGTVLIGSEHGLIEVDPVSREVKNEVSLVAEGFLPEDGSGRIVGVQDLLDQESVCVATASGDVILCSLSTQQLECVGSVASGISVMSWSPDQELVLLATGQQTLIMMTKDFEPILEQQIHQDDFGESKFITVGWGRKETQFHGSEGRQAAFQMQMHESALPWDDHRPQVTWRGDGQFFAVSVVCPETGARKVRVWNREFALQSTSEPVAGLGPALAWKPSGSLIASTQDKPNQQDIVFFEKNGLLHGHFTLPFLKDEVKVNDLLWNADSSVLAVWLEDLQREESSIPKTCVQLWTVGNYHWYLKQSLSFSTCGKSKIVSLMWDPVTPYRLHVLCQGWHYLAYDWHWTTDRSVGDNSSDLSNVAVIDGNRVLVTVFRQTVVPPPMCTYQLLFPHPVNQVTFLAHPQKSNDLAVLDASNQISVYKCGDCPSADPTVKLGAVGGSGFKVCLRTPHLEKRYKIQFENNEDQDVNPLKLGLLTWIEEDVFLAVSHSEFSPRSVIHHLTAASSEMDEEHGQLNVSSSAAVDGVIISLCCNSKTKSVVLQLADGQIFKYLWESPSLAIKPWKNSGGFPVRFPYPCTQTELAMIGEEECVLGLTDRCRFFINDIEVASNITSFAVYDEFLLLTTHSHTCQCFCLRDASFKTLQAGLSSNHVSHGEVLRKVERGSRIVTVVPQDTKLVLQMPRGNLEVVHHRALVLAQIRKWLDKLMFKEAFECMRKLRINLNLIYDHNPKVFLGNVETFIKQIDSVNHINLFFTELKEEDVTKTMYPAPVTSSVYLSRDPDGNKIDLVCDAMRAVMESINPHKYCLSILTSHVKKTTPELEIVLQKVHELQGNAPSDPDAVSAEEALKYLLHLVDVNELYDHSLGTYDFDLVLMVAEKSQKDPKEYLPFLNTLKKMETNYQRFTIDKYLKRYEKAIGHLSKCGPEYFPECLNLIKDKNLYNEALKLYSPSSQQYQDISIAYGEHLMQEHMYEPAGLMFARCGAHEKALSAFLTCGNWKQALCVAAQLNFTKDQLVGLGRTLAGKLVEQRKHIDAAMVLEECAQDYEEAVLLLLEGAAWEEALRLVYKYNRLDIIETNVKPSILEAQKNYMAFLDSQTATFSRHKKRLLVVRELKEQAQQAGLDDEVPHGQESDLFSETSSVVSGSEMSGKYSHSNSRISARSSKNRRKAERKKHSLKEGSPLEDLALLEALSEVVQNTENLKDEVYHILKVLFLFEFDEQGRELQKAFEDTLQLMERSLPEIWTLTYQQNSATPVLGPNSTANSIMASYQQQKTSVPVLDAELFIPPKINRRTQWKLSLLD
UniProt Q8TE02: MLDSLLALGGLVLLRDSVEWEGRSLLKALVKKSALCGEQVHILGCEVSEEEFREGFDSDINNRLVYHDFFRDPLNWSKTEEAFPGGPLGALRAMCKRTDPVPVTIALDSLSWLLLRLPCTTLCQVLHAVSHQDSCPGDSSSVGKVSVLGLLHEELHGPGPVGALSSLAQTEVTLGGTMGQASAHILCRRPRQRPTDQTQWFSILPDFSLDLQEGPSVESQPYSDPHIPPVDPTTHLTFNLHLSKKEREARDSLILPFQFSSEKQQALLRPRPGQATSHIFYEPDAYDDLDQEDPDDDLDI
UniProt P54852: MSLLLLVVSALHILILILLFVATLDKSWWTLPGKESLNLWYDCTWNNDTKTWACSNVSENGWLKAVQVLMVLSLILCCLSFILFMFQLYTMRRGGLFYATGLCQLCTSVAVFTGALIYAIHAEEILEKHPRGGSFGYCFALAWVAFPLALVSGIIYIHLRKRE
UniProt Q2NKX8: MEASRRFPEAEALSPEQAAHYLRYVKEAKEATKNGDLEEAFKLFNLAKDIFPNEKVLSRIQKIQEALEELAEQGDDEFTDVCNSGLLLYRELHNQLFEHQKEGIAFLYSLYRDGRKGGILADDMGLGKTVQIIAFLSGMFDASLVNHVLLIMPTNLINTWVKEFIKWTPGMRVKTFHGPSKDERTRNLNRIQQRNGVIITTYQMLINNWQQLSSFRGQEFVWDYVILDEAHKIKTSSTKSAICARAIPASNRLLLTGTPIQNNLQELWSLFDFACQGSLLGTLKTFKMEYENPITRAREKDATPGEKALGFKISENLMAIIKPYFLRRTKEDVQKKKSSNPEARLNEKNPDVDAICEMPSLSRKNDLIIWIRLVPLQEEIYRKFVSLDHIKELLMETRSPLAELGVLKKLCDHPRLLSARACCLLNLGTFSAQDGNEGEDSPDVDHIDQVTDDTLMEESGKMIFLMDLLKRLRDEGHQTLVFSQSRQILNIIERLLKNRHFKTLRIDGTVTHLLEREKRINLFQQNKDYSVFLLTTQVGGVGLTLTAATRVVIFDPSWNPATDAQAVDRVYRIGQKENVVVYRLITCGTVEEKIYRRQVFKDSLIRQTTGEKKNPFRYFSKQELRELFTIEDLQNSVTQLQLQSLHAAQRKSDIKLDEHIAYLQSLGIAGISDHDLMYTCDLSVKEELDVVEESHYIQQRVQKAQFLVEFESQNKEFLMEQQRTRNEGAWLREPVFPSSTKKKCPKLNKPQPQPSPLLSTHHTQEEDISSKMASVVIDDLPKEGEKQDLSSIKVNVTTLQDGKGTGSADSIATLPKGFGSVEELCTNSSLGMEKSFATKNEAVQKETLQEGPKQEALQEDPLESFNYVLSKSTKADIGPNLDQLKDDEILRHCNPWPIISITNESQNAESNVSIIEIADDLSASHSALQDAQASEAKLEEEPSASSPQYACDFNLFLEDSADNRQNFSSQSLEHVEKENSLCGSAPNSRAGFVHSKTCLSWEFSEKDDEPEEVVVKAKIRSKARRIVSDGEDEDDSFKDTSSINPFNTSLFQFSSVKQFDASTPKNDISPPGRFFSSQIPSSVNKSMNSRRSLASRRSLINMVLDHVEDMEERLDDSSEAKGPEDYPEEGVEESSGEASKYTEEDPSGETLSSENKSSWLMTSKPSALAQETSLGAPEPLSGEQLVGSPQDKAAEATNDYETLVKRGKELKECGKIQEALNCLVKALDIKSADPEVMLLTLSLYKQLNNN
UniProt Q5J8M3, whole entry, looked up: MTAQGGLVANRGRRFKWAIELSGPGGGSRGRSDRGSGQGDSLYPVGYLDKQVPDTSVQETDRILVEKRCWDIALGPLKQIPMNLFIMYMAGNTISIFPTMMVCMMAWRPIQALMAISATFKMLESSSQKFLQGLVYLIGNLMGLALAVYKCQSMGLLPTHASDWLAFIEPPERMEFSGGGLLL
UniProt Q13347, whole entry, looked up: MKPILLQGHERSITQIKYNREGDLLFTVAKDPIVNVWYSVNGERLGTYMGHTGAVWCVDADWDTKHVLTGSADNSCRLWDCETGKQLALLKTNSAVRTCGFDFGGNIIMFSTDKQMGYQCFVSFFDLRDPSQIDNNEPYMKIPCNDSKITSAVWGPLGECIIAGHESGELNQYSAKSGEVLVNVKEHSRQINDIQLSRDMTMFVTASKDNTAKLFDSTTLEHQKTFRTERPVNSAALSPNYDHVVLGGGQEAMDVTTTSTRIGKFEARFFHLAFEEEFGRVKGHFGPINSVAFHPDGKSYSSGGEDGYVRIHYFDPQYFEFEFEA
UniProt Q99613, whole entry, looked up: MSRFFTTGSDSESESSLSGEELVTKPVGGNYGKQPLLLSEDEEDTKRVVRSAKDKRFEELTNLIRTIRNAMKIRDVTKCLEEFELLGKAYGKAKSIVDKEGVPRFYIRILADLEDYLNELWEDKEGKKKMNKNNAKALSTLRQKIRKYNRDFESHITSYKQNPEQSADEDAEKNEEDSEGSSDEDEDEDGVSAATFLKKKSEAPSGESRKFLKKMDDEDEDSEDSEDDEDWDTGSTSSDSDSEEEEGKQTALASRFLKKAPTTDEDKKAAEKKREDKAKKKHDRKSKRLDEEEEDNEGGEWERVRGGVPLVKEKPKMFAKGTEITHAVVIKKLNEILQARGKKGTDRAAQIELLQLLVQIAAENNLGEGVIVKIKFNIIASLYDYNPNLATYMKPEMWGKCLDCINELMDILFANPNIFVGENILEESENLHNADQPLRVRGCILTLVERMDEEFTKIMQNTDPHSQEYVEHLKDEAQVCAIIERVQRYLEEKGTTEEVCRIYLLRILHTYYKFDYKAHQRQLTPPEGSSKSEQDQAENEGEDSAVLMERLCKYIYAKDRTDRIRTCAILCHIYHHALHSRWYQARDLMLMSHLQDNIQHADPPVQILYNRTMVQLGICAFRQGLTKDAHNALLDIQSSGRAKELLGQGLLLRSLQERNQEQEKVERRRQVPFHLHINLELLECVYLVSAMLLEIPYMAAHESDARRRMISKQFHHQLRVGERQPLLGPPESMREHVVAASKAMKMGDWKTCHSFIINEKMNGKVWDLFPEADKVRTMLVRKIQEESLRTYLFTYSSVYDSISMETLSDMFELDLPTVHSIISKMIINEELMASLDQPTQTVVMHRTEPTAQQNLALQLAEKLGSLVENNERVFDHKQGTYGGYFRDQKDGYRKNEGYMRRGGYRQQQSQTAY

log2 fold change, inactive:
EPN1 (UniProt Q9Y6I3) -0.012
EMC3 (UniProt Q9P0I2) 0.018
EIF3K (UniProt Q9UBQ5) 0.032
EMC1 (UniProt Q8N766) 0.046
EMC10 (UniProt Q5UCC4) -0.052
ELP4 (UniProt Q96EB1) -0.017
EPB41L2 (UniProt O43491) -0.009
EIF2B4 (UniProt Q9UI10) 0.022
EPHX1 (UniProt P07099) 0.001
ERGIC2 (UniProt Q96RQ1) 0.083
ERBIN isoform 8 (UniProt Q96RT1) 0.018
EIF3A (UniProt Q14152) 0.039
ELP1 (UniProt O95163) 0.001
ELP5 isoform 4 (UniProt Q8TE02) 0.009
EMP3 (UniProt P54852) 0.013
ELOB (UniProt Q15370) -0.072
EIF2B5 (UniProt Q13144) 0.038
ELAC2 (UniProt Q9BQ52) -0.009
ERCC6L (UniProt Q2NKX8) 0.047
EPS15L1 isoform 2 (UniProt Q9UBC2) -0.004
EMC4 (UniProt Q5J8M3) -0.041
EIF3I (UniProt Q13347) 0.036
EIF3C (UniProt Q99613) 0.006

Nothing new here: entries from further up.
log2 fold change, inactive:
EMC1 (UniProt Q8N766) 0.046
EMC10 (UniProt Q5UCC4) -0.052
ELP4 (UniProt Q96EB1) -0.017
EPB41L2 (UniProt O43491) -0.009
EIF2B4 (UniProt Q9UI10) 0.022
EPHX1 (UniProt P07099) 0.001

Reference: the supplement of paper PMC10849652
